No constants are given. Whether binding was seen depends on the method and setting. Binding seen in cells or lysates may run through a third protein. Some results given as binding are weak or reduced against the parent protein; the word gives no strength. Where a sequence is shown, tags or fusion partners need not be part of it.

The target of this assay is CLuc-CAM2 (A. thaliana CALMODULIN 2) (A. thaliana) (UniProt P0DH97). The assay can be described thus: split reporter.

B1: MLO12-NLuc (natural protein)
chain: MAIKERSLEETPTWAVAVVCFVLLFISIMIEYFLHFIGHWFKKKHKKALSEALEKVKAELMLLGFISLLLVVLQTPVSEICIPRNIAATWHPCSNHQEIAKYGKDYIDDGRKILEDFDSNDFYSPRRNLATKGYDKCAEKGKVALVSAYGIHQLHIFIFVLAVFHVLYCIITYALGKTKMKKWKSWERETKTIEYQYANDPERFRFARDTSFGRRHLNIWSKSTFTLWITCFFRQFFGSVTKVDYLTLRHGFIMAHLPAGSAARFDFQKYIERSLEQDFTVVVGISPLIWCIAVLFILTNTHGWDSYLWLPFLPLIVILIVGAKLQMIISKLGLRIQEKGDVVKGAPVVEPGDDLFWFGRPRFILFLIHLVLFTNAFQLAFFVWSTYEFTLKNCFHHKTEDIAIRITMGVLIQVLCSYITLPLYALVTQMGTSMRPTIFNDRVANALKKWHHTAKKQTKHGHSGSNTPHSSRPTTPTHGMSPVHLLHNYNNRSLDQQTSFTASPSPPRFSDYSGQGHGHQHFFDPESQNHSYQREITDSEFSNSHHPQVDMASPVREEKEIVEHVKVDLSEFTFKK
Consider B1, for which the binding entry was “binds”.

B2: MLO6-NLuc (natural protein)
chain: MADQVKEKTLEETSTWAVAVVCFVLLLISIVIEKLIHKIGSWFKKKNKKALYEALEKVKAELMLMGFISLLLTIGQGYISNICIPKNIAASMHPCSASEEARKYGKKDVPKEDEEENLRRKLLQLVDSLIPRRSLATKGYDKCAEKGKVAFVSAYGMHQLHIFIFVLAVCHVIYCIVTYALGKTKMRRWKKWEEETKTIEYQYSHDPERFRFARDTSFGRRHLSFWSKSTITLWIVCFFRQFFRSVTKVDYLTLRHGFIMAHLAPGSDARFDFRKYIQRSLEEDFKTIVEINPVIWFIAVLFLLTNTNGLNSYLWLPFIPFIVILIVGTKLQVIITKLGLRIQEKGDVVKGTPLVQPGDHFFWFGRPRFILFLIHLVLFTNAFQLAFFVWSTYEFGLKNCFHESRVDVIIRISIGLLVQILCSYVTLPLYALVTQMGSKMKPTVFNERVATALKSWHHTAKKNIKHGRTSESTTPFSSRPTTPTHGSSPIHLLRNAPHKRSRSVDESFANSFSPRNSDFDSWDPESQHETAETSNSNHRSRFGEEESEKKFVSSSVELPPGPGQIRTQHEISTISLRDFSFKR
B2: the binding result is on record as “binds”.

B3: MLO2-NLuc (natural protein)
chain: MADQVKERTLEETSTWAVAVVCFVLLFISIVLEHSIHKIGTWFKKKHKQALFEALEKVKAELMLLGFISLLLTIGQTPISNICISQKVASTMHPCSAAEEAKKYGKKDAGKKDDGDGDKPGRRLLLELAESYIHRRSLATKGYDKCAEKGKVAFVSAYGIHQLHIFIFVLAVVHVVYCIVTYAFGKIKMRTWKSWEEETKTIEYQYSNDPERFRFARDTSFGRRHLNFWSKTRVTLWIVCFFRQFFGSVTKVDYLALRHGFIMAHFAPGNESRFDFRKYIQRSLEKDFKTVVEISPVIWFVAVLFLLTNSYGLRSYLWLPFIPLVVILIVGTKLEVIITKLGLRIQEKGDVVRGAPVVQPGDDLFWFGKPRFILFLIHLVLFTNAFQLAFFAWSTYEFNLNNCFHESTADVVIRLVVGAVVQILCSYVTLPLYALVTQMGSKMKPTVFNDRVATALKKWHHTAKNETKHGRHSGSNTPFSSRPTTPTHGSSPIHLLHNFNNRSVENYPSSPSPRYSGHGHHEHQFWDPESQHQEAETSTHHSLAHESSEPVLASVELPPIRTSKSLRDFSFKK
As to B3, the binding result is “binds”.
